Record: PubChem BioAssay AID1159578 (Peter MacCallum Cancer Centre, 2015)

Screen: 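Knock-downs that alter how fast lymphatic endothelial cells migrate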 (primary screen)
Cell system: human lymphatic endothelial cells
Knock-down reagent: siRNA pool against human genes, 40 nM
Duration: 48 h after transfection
Measurement: 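High-content imaging of dye-stained cells in a scratch assay measures filled wound area and nuclei per well; duplicate means given as ratio to mock and robust z-score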
Direction: migration robust z-score: higher = faster migration into the scratch; migration relative to mock: higher = more scratch area covered than mock; nuclei per well: higher = more cells in the well
Hit rule: 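Migration changed when robust z exceeds 2 or falls below -2 and mean nuclei number is at least 3300; otherwise not called changed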
Meaning of the calls: active = migration changed; inactive = no migration change, or too few cells
In all, the deposit lists about 18,000 reagents; below is a random part of them. About 1,030 of all reagents (5.7%) were called active. 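Inactive calls also include pools with fewer than 3300 nuclei, whose migration was not assessed.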 The raw values are shown without normalisation.

no.	gene symbol	migration robust z-score	migration class with cell-count check	migration relative to mock	nuclei per well, duplicate mean	outcome
1	RELT	-2.93	migration z below -2; enough cells	0.24	6012	active
2	NPAP1	-0.26	migration z between -2 and 2; enough cells	0.82	5700	inactive
3	CERS2	-0.86	migration z between -2 and 2; enough cells	0.66	3704	inactive
4	ZRSR2	-0.6	migration z between -2 and 2; enough cells	0.73	6218	inactive
5	CT47A11	-1.08	migration z between -2 and 2; enough cells	0.6	6182	inactive
6	IFT54	-0.26	migration z between -2 and 2; enough cells	0.82	5670	inactive
7	WDR19	-0.75	under 3300 nuclei; migration not judged	0.69	3189	inactive
8	ZNF586	0.73	migration z between -2 and 2; enough cells	1.08	5310	inactive
9	ELOB	-0.21	migration z between -2 and 2; enough cells	0.76	5453	inactive
10	ANKRD23	0.24	migration z between -2 and 2; enough cells	0.94	5694	inactive
11	TMEM115	-0.13	migration z between -2 and 2; enough cells	0.86	6094	inactive
12	THY1	0.16	migration z between -2 and 2; enough cells	0.92	5962	inactive
13	PTS	0.42	migration z between -2 and 2; enough cells	0.88	6278	inactive
14	MCM9	0.22	migration z between -2 and 2; enough cells	0.94	5590	inactive
15	FAM171B	1.23	migration z between -2 and 2; enough cells	1.21	6176	inactive
16	SERBP1	0.32	migration z between -2 and 2; enough cells	0.97	5488	inactive
17	CENPC	-0.9	migration z between -2 and 2; enough cells	0.66	5300	inactive
18	SPDYE3	-2.38	migration z below -2; enough cells	0.28	3718	active
19	CSRNP1	-0.18	migration z between -2 and 2; enough cells	0.84	5526	inactive
20	SCUBE1	1.29	migration z between -2 and 2; enough cells	1.22	5136	inactive
21	CCDC61	0.05	migration z between -2 and 2; enough cells	0.9	6512	inactive
22	L3MBTL4	0.46	migration z between -2 and 2; enough cells	1	6130	inactive
23	SPANXA2	-0.37	migration z between -2 and 2; enough cells	0.78	4100	inactive
24	BEND6	0.05	migration z between -2 and 2; enough cells	0.9	5595	inactive
25	IFI27L1	-0.99	migration z between -2 and 2; enough cells	0.63	4556	inactive
26	NADK2	-1.4	migration z between -2 and 2; enough cells	0.52	6251	inactive
27	PHF10	-0.65	migration z between -2 and 2; enough cells	0.68	5652	inactive
28	PSMC1	-0.7	migration z between -2 and 2; enough cells	0.67	5519	inactive
29	OR52L1	-1.46	migration z between -2 and 2; enough cells	0.5	5224	inactive
30	C3orf38	2.61	migration z above 2; enough cells	1.56	6118	active
31	FBXL19	-0.52	migration z between -2 and 2; enough cells	0.7	5444	inactive
32	CDC42	-2.46	migration z below -2; enough cells	0.33	5348	active
33	DDX60	0.29	migration z between -2 and 2; enough cells	0.96	7066	inactive
34	ATG9A	-0.2	migration z between -2 and 2; enough cells	0.84	5784	inactive
35	ERI2	-0.05	migration z between -2 and 2; enough cells	0.88	5517	inactive
36	BPIFB2	-0.7	migration z between -2 and 2; enough cells	0.7	5734	inactive
37	PNPLA7	-0.62	migration z between -2 and 2; enough cells	0.72	6031	inactive
38	PGGT1B	-0.08	migration z between -2 and 2; enough cells	0.79	5656	inactive
39	GABRA3	0.16	migration z between -2 and 2; enough cells	0.84	4859	inactive
40	TNFRSF10C	0.62	migration z between -2 and 2; enough cells	0.92	6098	inactive
41	CSKMT	0.5	migration z between -2 and 2; enough cells	1.01	4968	inactive
42	PI4KAP2	0.64	migration z between -2 and 2; enough cells	1.05	5251	inactive
43	PDIA5	-0.02	migration z between -2 and 2; enough cells	0.8	5017	inactive
44	SLC31A2	-3.73	migration z below -2; enough cells	0.08	4178	active
45	CLEC11A	1.5	migration z between -2 and 2; enough cells	1.09	4801	inactive
46	GTF3A	0.42	migration z between -2 and 2; enough cells	0.88	4693	inactive
47	MTCH2	1.16	migration z between -2 and 2; enough cells	1.19	4571	inactive
48	TEAD2	0.39	migration z between -2 and 2; enough cells	0.99	5771	inactive
49	LY6G6F	0.16	migration z between -2 and 2; enough cells	0.94	5444	inactive
50	RAD21	-2.54	migration z below -2; enough cells	0.32	5736	active
51	SCLT1	-1.67	migration z between -2 and 2; enough cells	0.45	7124	inactive
52	MAPK14	0.52	migration z between -2 and 2; enough cells	0.9	5248	inactive
53	XAB2	-2.28	migration z below -2; enough cells	0.36	4412	active
54	PCDHA4	2.18	migration z above 2; enough cells	1.45	7321	active
55	CHRM1	-1.12	migration z between -2 and 2; enough cells	0.59	5190	inactive
56	GNRHR	0.46	migration z between -2 and 2; enough cells	0.9	6788	inactive
57	NIF3L1	-2.68	migration z below -2; enough cells	0.18	5136	active

Targets above whose target name starts with Z or z (2):
gene symbol	migration robust z-score	migration class with cell-count check	migration relative to mock	nuclei per well, duplicate mean	outcome
ZRSR2	-0.6	migration z between -2 and 2; enough cells	0.73	6218	inactive
ZNF586	0.73	migration z between -2 and 2; enough cells	1.08	5310	inactive
